Laboratory results published in paper PMC9366055.
No constants are given. Whether binding was seen depends on the method and setting. In cells and extracts the contact can be indirect. Some results given as binding are weak or reduced against the parent protein; the word gives no strength.

Chains of the proteins cited; added tags and fusions are not shown.
UniProt Q9WWF9: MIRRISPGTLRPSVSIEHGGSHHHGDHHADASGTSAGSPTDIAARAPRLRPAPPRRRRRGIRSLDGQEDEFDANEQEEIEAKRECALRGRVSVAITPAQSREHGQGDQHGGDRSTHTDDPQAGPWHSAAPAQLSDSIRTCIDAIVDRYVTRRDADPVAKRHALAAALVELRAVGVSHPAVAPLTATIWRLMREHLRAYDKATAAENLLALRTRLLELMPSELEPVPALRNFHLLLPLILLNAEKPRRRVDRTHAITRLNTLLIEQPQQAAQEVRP
UniProt Q9WWF7: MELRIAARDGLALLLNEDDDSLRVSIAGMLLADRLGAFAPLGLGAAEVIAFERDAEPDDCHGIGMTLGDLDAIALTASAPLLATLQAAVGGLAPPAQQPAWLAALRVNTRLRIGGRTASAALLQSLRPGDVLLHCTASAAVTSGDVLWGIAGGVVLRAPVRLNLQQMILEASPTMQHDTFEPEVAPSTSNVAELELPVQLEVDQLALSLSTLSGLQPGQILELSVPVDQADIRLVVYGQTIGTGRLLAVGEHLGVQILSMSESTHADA

Legend:
[1] = target: GST-HpaA (X. euvesicatoria) (UniProt Q9WWF9); experiment: pull-down; GST or GST fusion from E. coli BL21 (DE3) lysate immobilised on glutathione sepharose, washed, incubated with a bacterial lysate containing the c-Myc-tagged partner for 2 h at 4°C; eluted with Laemmli buffer; immunoblot with c-Myc- and GST-specific antibodies; only the target purified
[2] = target: GST-HrcQ (X. euvesicatoria) (UniProt Q9WWF7); experiment: as above

Substance	binding [1]	binding [2]
HrcQ-c-Myc (from UniProt Q9WWF7 1-268)	binds	–
HpaA-c-Myc (from UniProt Q9WWF9 1-275)	–	binds
